Measured values as given in patent US20250290131.

System: Nb.BssSI
Test: enzyme reaction in vitro
Conditions: nicking followed by nick translation and QD labeling; NEB buffer 2, 16 C; purified recombinant protein; protein details: New England Biolabs; variant of HeLa genomic DNA

CTCGTG (double strand) [Nb.BssSI site in HeLa genomic DNA]
activity on this sequence: active

The exact form of at least one protein or probe is not confirmed.
